Experimental findings from patent publication US9278997B2 (NOVARTIS AG, priority 2011, dated 2016) are described below.

Values joined by “and” are separate entries in the source; they are usually repeats but may differ in a detail not shown here. Equal values may be shown once.

This series can be described thus: general procedure: hybrid (solid and solution phase) peptide synthesis; HATU/DMAP (macrolactamisation).
The mark [1] stands for this setting: late stage modification step, HPLC.

In the case of “(S)-2-acetamido-N^1-((1S,2S,5S,8S,11R,12S,15S,18S,21R)-2-benzyl-21-hydroxy-5-(4-hydroxybenzyl)-15-isobutyl-8-isopropyl-4,11-dimethyl-3,6,9,13,16,22-hexaoxo-10-oxa-1,4,7,14,17-pentaazabicyclo[16.3.1]docosan-12-yl)pentanediamide”, the step yield (late stage modification step) is on record as 81%. In addition, the “final purity (method not given)” value (late stage modification step, HPLC, run 1) was 97% (A) and 90% (A).
On to “(S)—N^1-((2S,5S,8S,11R,12S,15S,18S,21R)-2,8-di-(S)-sec-butyl-21-hydroxy-5-(4-hydroxybenzyl)-15-isobutyl-4,11-dimethyl-3,6,9,13,16,22-hexaoxo-10-oxa-1,4,7,14,17-pentaazabicyclo[16.3.1]docosan-12-yl)-2-isobutyramidopentanediamide”, for which the step yield is, setting by setting: (late stage modification step) 87.8%; (late stage modification step, run 1) 59.1%; (late stage modification step, run 2) 64%. Further, under setting [1], the “crude HPLC purity” value is “ca. 95.6 area %”. Also, under setting [1], the “final purity (method not given)” value worked out at 96.8 area %.
For the substance “(S)—N^1-((3S,6S,9S,12S,15S,18S,19R)-6-(4-(tert-butoxy)benzyl)-3,9-di((S)-sec-butyl)-12-(3-hydroxypropyl)-15-isobutyl-7,19-dimethyl-2,5,8,11,14,17-hexaoxo-1-oxa-4,7,10,13,16-pentaazacyclononadecan-18-yl)-2-isobutyramido-N^5-tritylpentanediamide”, the step yield (late stage modification step) was 82% and 94.5%. For the same substance, the “final HPLC purity” value under setting [1] amounted to 97 a %.
As for “Isobutyryl-Gln(Trt)-Thr(Ile-Tyr(tBu)Me-Ile-Synthon 1-H)-Leu-OH”, the “final purity (method not given)” value came to 98.8% (whole synthesis, HPLC, run 1) and 99.3% a (whole synthesis, HPLC, run 2). For the same substance, the isolated yield (whole synthesis, for the last two steps) amounted to 48%.
